Measured values as given in the supplement of paper PMC10849652.
Some of the results follow.

Protein sequences, listed by entry. Tags and fused reporters are not part of them. Lines headed by an entry give the natural chain unless they say otherwise; changes in a name come on top.
UniProt P58335, whole entry, looked up: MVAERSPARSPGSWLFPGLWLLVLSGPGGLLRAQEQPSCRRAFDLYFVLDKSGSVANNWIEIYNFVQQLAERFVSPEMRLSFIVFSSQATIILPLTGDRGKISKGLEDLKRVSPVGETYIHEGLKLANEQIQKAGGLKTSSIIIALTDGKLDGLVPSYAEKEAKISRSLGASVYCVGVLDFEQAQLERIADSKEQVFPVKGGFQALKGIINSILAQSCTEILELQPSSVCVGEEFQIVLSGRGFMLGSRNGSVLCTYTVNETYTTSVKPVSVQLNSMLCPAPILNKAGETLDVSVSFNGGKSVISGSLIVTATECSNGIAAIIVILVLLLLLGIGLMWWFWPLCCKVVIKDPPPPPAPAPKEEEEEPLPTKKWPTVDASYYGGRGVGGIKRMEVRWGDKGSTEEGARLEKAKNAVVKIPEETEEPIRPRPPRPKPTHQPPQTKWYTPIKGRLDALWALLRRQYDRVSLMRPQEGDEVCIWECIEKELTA
UniProt P61204: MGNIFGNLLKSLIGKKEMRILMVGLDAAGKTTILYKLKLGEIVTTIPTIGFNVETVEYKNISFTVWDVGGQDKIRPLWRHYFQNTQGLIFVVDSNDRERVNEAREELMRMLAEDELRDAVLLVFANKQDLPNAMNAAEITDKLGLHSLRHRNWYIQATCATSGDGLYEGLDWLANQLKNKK
UniProt P62330: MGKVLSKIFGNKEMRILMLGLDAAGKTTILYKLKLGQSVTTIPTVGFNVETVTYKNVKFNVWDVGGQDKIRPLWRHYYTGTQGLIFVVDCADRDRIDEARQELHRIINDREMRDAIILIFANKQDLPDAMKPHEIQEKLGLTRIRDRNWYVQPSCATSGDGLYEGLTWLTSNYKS
UniProt O15084: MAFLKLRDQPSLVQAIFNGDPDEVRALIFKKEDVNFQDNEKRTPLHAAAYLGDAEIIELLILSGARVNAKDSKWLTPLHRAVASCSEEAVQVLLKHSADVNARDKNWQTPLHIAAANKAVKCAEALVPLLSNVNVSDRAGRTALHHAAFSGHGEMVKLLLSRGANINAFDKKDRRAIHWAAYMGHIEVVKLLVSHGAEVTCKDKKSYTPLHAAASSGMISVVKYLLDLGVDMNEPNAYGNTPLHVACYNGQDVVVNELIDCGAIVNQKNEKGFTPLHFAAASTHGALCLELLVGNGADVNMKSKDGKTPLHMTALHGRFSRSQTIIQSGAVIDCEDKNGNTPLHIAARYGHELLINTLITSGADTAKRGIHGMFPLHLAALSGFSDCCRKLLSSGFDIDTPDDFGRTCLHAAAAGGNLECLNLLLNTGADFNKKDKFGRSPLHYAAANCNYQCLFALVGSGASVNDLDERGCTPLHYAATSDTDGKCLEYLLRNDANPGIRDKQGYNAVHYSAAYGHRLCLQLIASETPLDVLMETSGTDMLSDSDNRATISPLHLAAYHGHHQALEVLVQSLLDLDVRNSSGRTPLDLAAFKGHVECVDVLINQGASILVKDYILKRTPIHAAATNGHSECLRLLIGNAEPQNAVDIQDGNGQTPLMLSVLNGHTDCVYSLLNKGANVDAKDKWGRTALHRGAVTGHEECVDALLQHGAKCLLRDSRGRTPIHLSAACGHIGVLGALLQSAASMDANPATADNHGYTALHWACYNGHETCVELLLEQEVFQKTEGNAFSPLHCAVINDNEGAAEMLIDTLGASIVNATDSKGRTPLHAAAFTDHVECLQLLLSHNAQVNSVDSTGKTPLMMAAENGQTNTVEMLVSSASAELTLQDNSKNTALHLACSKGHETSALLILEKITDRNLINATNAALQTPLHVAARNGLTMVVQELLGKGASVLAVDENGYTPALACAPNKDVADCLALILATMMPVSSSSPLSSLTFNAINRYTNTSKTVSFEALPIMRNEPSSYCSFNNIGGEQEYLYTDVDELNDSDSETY
UniProt P02654: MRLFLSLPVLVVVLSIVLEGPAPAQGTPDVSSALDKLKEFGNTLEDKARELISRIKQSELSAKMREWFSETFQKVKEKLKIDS
UniProt Q8IZ07: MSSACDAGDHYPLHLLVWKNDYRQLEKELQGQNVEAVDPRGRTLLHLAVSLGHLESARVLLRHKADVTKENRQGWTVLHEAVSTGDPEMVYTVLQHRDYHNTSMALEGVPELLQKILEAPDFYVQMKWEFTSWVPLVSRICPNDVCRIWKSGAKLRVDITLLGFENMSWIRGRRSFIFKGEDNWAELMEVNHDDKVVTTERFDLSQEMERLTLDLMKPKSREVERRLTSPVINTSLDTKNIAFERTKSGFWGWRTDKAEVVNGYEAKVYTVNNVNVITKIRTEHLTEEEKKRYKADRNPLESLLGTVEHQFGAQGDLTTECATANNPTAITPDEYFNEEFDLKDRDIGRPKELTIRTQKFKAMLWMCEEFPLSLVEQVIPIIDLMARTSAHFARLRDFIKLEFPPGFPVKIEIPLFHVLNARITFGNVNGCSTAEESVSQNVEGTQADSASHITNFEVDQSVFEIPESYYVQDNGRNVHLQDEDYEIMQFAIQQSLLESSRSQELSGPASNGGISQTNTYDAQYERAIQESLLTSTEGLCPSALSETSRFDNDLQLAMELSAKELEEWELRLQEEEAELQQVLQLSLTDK
UniProt Q9NRW3: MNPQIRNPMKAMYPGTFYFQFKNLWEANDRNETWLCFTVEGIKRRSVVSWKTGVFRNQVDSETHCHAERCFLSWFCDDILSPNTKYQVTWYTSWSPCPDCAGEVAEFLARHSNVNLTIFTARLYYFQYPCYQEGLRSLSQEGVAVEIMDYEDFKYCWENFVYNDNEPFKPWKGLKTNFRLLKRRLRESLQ
UniProt Q92974: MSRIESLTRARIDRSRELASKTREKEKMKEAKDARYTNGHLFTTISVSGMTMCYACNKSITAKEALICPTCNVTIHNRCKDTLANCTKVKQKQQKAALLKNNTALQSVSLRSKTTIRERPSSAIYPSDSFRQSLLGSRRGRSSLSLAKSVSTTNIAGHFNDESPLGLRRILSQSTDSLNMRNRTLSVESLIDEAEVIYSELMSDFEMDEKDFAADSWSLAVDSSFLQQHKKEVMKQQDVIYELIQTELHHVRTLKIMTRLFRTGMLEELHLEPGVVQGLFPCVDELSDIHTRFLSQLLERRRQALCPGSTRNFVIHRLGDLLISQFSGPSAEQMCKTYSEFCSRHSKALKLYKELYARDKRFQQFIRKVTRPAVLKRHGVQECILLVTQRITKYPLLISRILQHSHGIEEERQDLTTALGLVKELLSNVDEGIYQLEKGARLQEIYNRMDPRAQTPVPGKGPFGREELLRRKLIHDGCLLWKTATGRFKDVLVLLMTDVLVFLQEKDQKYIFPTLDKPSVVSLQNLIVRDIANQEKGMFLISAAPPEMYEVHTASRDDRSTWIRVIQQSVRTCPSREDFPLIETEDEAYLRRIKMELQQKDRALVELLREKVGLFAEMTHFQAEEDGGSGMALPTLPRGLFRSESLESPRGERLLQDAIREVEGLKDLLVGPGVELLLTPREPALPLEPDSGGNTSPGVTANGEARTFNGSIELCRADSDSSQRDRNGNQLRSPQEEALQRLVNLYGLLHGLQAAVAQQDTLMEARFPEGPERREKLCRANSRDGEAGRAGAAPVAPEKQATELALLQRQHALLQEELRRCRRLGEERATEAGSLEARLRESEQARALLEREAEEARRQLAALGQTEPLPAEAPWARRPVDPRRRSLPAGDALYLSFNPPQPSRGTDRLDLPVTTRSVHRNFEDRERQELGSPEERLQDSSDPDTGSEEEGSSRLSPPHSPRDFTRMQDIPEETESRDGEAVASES
UniProt P07355, whole entry, looked up: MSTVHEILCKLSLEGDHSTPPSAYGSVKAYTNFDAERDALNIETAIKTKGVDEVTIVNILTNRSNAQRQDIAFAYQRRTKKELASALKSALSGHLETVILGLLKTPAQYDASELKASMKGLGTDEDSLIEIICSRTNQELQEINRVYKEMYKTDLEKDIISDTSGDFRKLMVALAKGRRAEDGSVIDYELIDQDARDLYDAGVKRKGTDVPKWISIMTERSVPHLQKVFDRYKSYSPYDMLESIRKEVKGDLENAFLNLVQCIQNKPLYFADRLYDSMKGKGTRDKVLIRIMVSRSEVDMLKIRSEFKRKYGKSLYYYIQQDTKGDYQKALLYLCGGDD
UniProt P56377: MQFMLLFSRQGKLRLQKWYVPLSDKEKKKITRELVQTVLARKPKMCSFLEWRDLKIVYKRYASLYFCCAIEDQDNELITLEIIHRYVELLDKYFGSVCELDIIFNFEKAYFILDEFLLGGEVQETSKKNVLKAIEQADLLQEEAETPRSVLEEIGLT
UniProt Q9BZZ5: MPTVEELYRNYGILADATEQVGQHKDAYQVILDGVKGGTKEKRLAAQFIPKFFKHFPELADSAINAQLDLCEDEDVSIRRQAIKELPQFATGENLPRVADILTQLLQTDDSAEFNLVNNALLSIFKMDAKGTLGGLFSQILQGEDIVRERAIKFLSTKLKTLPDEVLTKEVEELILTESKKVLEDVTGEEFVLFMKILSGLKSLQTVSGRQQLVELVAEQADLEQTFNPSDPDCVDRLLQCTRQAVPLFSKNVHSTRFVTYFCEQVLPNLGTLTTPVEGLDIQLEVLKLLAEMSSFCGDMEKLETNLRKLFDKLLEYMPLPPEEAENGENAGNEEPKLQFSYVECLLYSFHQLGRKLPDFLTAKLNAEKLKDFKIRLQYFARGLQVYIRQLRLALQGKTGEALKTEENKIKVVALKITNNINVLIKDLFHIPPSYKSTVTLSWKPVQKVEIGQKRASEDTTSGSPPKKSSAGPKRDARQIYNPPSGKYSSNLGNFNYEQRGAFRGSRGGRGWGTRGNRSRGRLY
UniProt P78540: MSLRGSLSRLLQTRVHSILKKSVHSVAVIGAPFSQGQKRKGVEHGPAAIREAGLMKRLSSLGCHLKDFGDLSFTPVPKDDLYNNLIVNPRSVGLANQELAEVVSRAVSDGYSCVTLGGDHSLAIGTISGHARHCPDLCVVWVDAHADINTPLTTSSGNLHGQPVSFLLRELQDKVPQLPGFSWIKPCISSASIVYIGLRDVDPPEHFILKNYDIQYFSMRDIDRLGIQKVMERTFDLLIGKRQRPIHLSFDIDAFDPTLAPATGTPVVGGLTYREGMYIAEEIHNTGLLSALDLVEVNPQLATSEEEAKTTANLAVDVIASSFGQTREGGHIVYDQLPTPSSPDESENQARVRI
UniProt Q92572: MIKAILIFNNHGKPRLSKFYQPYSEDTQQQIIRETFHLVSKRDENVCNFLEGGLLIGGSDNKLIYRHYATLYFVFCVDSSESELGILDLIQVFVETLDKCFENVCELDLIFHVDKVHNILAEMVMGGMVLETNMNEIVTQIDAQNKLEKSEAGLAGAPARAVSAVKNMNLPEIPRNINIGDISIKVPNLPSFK
UniProt O14617: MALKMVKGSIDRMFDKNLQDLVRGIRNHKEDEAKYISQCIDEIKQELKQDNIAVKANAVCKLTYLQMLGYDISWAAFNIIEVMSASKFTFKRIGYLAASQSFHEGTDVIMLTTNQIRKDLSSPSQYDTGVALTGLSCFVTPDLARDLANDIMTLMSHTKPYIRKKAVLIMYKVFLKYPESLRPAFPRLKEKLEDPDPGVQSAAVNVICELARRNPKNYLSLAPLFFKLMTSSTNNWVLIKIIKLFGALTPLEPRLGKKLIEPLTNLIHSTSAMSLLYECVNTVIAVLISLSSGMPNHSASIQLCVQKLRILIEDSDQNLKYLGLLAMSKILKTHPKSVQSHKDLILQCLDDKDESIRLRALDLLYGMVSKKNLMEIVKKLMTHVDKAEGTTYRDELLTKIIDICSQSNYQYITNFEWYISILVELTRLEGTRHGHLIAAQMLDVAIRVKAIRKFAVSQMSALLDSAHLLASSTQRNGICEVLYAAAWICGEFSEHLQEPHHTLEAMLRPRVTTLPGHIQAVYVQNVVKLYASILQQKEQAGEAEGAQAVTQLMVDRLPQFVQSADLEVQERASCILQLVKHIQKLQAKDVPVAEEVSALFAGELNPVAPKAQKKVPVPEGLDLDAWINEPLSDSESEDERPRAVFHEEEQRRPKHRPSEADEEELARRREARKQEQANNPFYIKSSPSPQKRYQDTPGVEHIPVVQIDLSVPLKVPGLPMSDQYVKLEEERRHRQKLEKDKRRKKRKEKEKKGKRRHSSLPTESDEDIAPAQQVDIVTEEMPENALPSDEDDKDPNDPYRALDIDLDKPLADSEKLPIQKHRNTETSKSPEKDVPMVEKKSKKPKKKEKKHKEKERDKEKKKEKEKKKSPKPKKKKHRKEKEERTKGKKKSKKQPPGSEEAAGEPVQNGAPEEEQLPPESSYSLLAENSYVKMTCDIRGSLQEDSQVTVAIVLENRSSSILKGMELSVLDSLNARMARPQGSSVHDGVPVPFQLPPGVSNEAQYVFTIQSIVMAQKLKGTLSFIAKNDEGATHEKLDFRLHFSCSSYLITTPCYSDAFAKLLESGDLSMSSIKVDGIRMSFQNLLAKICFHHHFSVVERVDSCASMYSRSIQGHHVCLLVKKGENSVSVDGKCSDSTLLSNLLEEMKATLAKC

Key:
Test in all cases: log2 fold change, soluble protein after heating vs DMSO (PISA); higher = thermal stabilisation; K562 cells, 10 uM, 30 min; active = over 0.2 and 3.5 SD of the protein, either way, in both replicates (recomputed)
[1] = compound: CS(=O)(=O)c1ccc(-c2cnc(N)c(C(=O)Nc3ccccc3)n2)cc1
Method in brief: (§1)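 K562 cells (2×10^6 cells/mL) were treated with 10 μM compound for 30 min, and aliquots were heated for 3 min over 48°C-58°C. Pooled aliquots were extracted in PBS with 0.5% NP-40 at 4°C, and the supernatant after 21,000xg for 90 min was measured by TMTpro 16plex LC-MS/MS with channel sums equalised. Reported thermal stability, relative to control samples and from duplicates, is a log2 fold change.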

crizotinib = compound: C[C@@H](Oc1cc(-c2cnn(C3CCNCC3)c2)cnc1N)c1c(Cl)ccc(F)c1Cl [crizotinib]
Method in brief: as §1

[2] = compound: C[C@@H]1COCCN1C2=NC(=NC(=C2)C3(CC3)S(=O)(=O)C)C4=C5C=CNC5=CC=C4
Method in brief: as §1

[3] = compound: C[C@H](C1=CC=C(C=C1)C(=O)NC2=C3C=CNC3=NC=C2)N
Method in brief: as §1

duvelisib = compound: C[C@H](Nc1ncnc2nc[nH]c12)c1cc2cccc(Cl)c2c(=O)n1-c1ccccc1 [duvelisib]
Method in brief: as §1

gandotinib = compound: Cc1cc(Nc2cc(CN3CCOCC3)c3nc(C)c(Cc4ccc(Cl)cc4F)n3n2)n[nH]1 [gandotinib]
Method in brief: as §1

tozasertib = compound: Cc1cc(Nc2cc(N3CCN(C)CC3)nc(Sc3ccc(NC(=O)C4CC4)cc3)n2)n[nH]1 [tozasertib]
Method in brief: as §1

[4] = compound: Cc1cc(SCc2sc(-c3ccc(C(F)(F)F)cc3)nc2C)ccc1OCC(=O)O
Method in brief: as §1

doramapimod = compound: Cc1ccc(-n2nc(C(C)(C)C)cc2NC(=O)Nc2ccc(OCCN3CCOCC3)c3ccccc23)cc1 [doramapimod]
Method in brief: as §1

ispinesib = compound: Cc1ccc(C(=O)N(CCCN)[C@@H](c2nc3cc(Cl)ccc3c(=O)n2Cc2ccccc2)C(C)C)cc1 [ispinesib]
Method in brief: as §1

bafetinib = compound: Cc1ccc(NC(=O)c2ccc(CN3CC[C@H](N(C)C)C3)c(C(F)(F)F)c2)cc1Nc1nccc(-c2cncnc2)n1 [bafetinib]
Method in brief: as §1

[5] = compound: Cc1cccc(CC(=O)N2CCc3c2ccc(-c2cn(C)c4ncnc(N)c24)c3F)n1
Method in brief: as §1

nilotinib = compound: Cc1cn(-c2cc(NC(=O)c3ccc(C)c(Nc4nccc(-c5cccnc5)n4)c3)cc(C(F)(F)F)c2)cn1 [nilotinib]
Method in brief: as §1

[6] = compound: Cc1nc(Nc2n[nH]c3c2CN(C(=O)N[C@H](CN(C)C)c2ccccc2)C3(C)C)c2sccc2n1
Method in brief: as §1

dasatinib = compound: Cc1nc(Nc2ncc(C(=O)Nc3c(C)cccc3Cl)s2)cc(N2CCN(CCO)CC2)n1 [dasatinib]
Method in brief: as §1

[7] = compound: Cc1ncc(-c2ccnc(Nc3ccc(S(C)(=O)=O)cc3)n2)n1C(C)C
Method in brief: as §1

[8] = compound: Cn1cc(-c2ccc3c(c2)CCN3C(=O)Cc2cccc(C(F)(F)F)c2)c2c(N)ncnc21
Method in brief: as §1

[9] = compound: Cn1cc(-c2ccc3nnc(C(F)(F)c4ccc5ncccc5c4)n3n2)cn1
Method in brief: as §1

tipifarnib = compound: Cn1cncc1[C@@](N)(c1ccc(Cl)cc1)c1ccc2c(c1)c(-c1cccc(Cl)c1)cc(=O)n2C [tipifarnib]
Method in brief: as §1

mubritinib = compound: FC(F)(F)c1ccc(/C=C/c2nc(COc3ccc(CCCCn4ccnn4)cc3)co2)cc1 [mubritinib]
Method in brief: as §1

Measured: log2 fold change

ANTXR2 isoform 4 (UniProt P58335)
inactive: [1] 0.021 | crizotinib 0.017 | [2] 0.017 | [3] -0.04 | duvelisib 0.084 | gandotinib 0.038 | tozasertib -0.009 | [4] -0.026 | doramapimod -0.033 | ispinesib 0.035 | bafetinib -0.049 | [5] -0.102 | nilotinib 0.055 | [6] -0.046 | dasatinib 0.037 | [7] 0.057 | [8] -0.002 | [9] 0.038 | tipifarnib 0.042 | mubritinib 0.048

ARF3 (UniProt P61204)
inactive: [1] -0.022 | crizotinib 0.037 | [2] 0.055 | [3] -0.054 | duvelisib 0.032 | gandotinib -0.135 | tozasertib -0.031 | [4] -0.015 | doramapimod -0.013 | ispinesib 0.063 | bafetinib 0.004 | [5] -0.017 | nilotinib -0.011 | [6] 0.016 | dasatinib 0.032 | [7] 0.005 | [8] 0.02 | [9] 0.012 | tipifarnib 0.001 | mubritinib 0.036

ANP32A (UniProt P39687)
inactive: [1] -0.005 | crizotinib 0.012 | [2] 0.081 | [3] -0.086 | duvelisib 0.016 | gandotinib -0.064 | tozasertib 0.018 | [4] -0.029 | doramapimod -0.051 | ispinesib 0.089 | bafetinib 0.042 | [5] 0.085 | nilotinib 0.023 | [6] -0.03 | dasatinib 0.022 | [7] -0.019 | [8] 0.049 | [9] -0.029 | tipifarnib -0.04 | mubritinib 0.024

ARF6 (UniProt P62330)
inactive: [1] 0.069 | crizotinib 0.034 | [2] 0.052 | [3] -0.065 | duvelisib 0.016 | gandotinib 0.04 | tozasertib -0.024 | [4] -0.054 | doramapimod -0.001 | ispinesib 0.126 | bafetinib 0.041 | [5] 0.046 | nilotinib -0.043 | [6] 0.027 | dasatinib 0.035 | [7] 0.027 | [8] -0.011 | [9] -0.032 | tipifarnib -0.03 | mubritinib 0.014

ANKRD28 (UniProt O15084)
inactive: [1] -0.016 | crizotinib -0.028 | [2] 0.024 | [3] -0.001 | duvelisib 0.035 | gandotinib -0.064 | tozasertib 0.016 | [4] 0.018 | doramapimod 0.012 | ispinesib 0.025 | bafetinib -0.029 | [5] 0.017 | nilotinib -0.022 | [6] -0.076 | dasatinib -0.045 | [7] -0.011 | [8] -0.002 | [9] -0.072 | tipifarnib 0.004 | mubritinib 0.019

APOC1 (UniProt P02654)
inactive: [1] -0.125 | crizotinib 0.1 | [2] 0.27 | [3] -0.059 | duvelisib 0.133 | gandotinib -0.142 | tozasertib 0.046 | [4] 0.009 | doramapimod 0.03 | ispinesib 0.187 | bafetinib -0.124 | [5] 0.124 | nilotinib 0.033 | [6] 0.015 | dasatinib 0.099 | [7] -0.03 | [8] 0.05 | [9] 0.186 | tipifarnib 0.098 | mubritinib -0.026

ANKRD17 (UniProt O75179)
inactive: [1] 0.053 | crizotinib 0.046 | [2] -0.052 | [3] 0.166 | duvelisib 0.021 | gandotinib -0.037 | tozasertib 0.062 | [4] -0.07 | doramapimod 0.139 | ispinesib -0.213 | bafetinib -0.056 | [5] 0.093 | nilotinib 0.015 | [6] -0.026 | dasatinib 0 | [7] -0.015 | [8] -0.036 | [9] -0.088 | tipifarnib 0.001 | mubritinib -0.045

ANKRD13A (UniProt Q8IZ07)
inactive: [1] 0.006 | crizotinib 0.03 | [2] -0.053 | [3] 0.088 | duvelisib 0.108 | gandotinib 0.098 | tozasertib 0.046 | [4] -0.007 | doramapimod 0.05 | ispinesib -0.022 | bafetinib 0.008 | [5] -0.039 | nilotinib 0.028 | [6] -0.08 | dasatinib -0.059 | [7] 0.16 | [8] 0.065 | [9] -0.041 | tipifarnib 0.007 | mubritinib 0.019

Reprinted from above (two entries):
ANP32A (UniProt P39687)
inactive: [1] -0.005 | crizotinib 0.012 | [2] 0.081 | [3] -0.086 | duvelisib 0.016 | gandotinib -0.064 | tozasertib 0.018 | [4] -0.029 | doramapimod -0.051 | ispinesib 0.089 | bafetinib 0.042 | [5] 0.085 | nilotinib 0.023 | [6] -0.03 | dasatinib 0.022 | [7] -0.019 | [8] 0.049 | [9] -0.029 | tipifarnib -0.04 | mubritinib 0.024

ARF6 (UniProt P62330)
inactive: [1] 0.069 | crizotinib 0.034 | [2] 0.052 | [3] -0.065 | duvelisib 0.016 | gandotinib 0.04 | tozasertib -0.024 | [4] -0.054 | doramapimod -0.001 | ispinesib 0.126 | bafetinib 0.041 | [5] 0.046 | nilotinib -0.043 | [6] 0.027 | dasatinib 0.035 | [7] 0.027 | [8] -0.011 | [9] -0.032 | tipifarnib -0.03 | mubritinib 0.014

Additional records.

APOBEC3C (UniProt Q9NRW3)
inactive: [1] -0.009 | crizotinib -0.065 | [2] -0.233 | [3] 0.417 | duvelisib -0.162 | gandotinib 0.03 | tozasertib 0 | [4] -0.011 | doramapimod 0.245 | ispinesib -0.149 | bafetinib 0.134 | [5] -0.111 | nilotinib 0.019 | [6] -0.001 | dasatinib 0.1 | [7] 0.006 | [8] -0.156 | [9] -0.153 | tipifarnib 0.239 | mubritinib -0.036

ARHGEF2 (UniProt Q92974)
inactive: [1] 0.099 | crizotinib -0.213 | [2] -0.423 | [3] 0.481 | duvelisib -0.12 | gandotinib 0.065 | tozasertib 0.084 | [4] 0.18 | doramapimod 0.41 | ispinesib -0.278 | bafetinib 0.175 | [5] 0.026 | nilotinib -0.194 | [6] -0.347 | dasatinib 0.041 | [7] 0.093 | [8] -0.281 | [9] -0.176 | tipifarnib 0.025 | mubritinib -0.245

ANXA2 isoform 2 (UniProt P07355)
inactive: [1] -0.043 | crizotinib -0.001 | [2] 0.048 | [3] -0.092 | duvelisib -0.006 | gandotinib -0.138 | tozasertib 0.016 | [4] 0.022 | doramapimod 0.001 | ispinesib 0.125 | bafetinib 0.019 | [5] -0.004 | nilotinib 0.031 | [6] -0.003 | dasatinib -0.038 | [7] 0.03 | [8] 0.036 | [9] -0.022 | tipifarnib -0.036 | mubritinib 0.002

AP1S2 (UniProt P56377)
inactive: [1] 0.035 | crizotinib -0.084 | [2] 0.17 | [3] -0.02 | duvelisib 0.051 | gandotinib -0.062 | [4] 0.227 | doramapimod 0.1 | bafetinib 0.102 | [5] 0.103 | nilotinib -0.092 | [6] -0.016 | dasatinib -0.133 | [7] 0.014 | [8] 0.1 | tipifarnib 0.008 | mubritinib 0.015

API5 isoform 2 (UniProt Q9BZZ5)
inactive: [1] 0.036 | crizotinib 0.027 | [2] -0.049 | [3] -0.116 | duvelisib 0.007 | gandotinib 0 | tozasertib 0.073 | [4] -0.007 | doramapimod -0.07 | ispinesib 0.094 | bafetinib -0.068 | [5] -0.075 | nilotinib -0.01 | [6] 0.001 | dasatinib -0.018 | [7] -0.06 | [8] 0.052 | [9] -0.058 | tipifarnib -0.051 | mubritinib 0.014

ARG2 (UniProt P78540)
inactive: [1] -0.001 | crizotinib 0.088 | [2] 0.036 | [3] 0.034 | duvelisib 0.038 | gandotinib -0.05 | tozasertib 0 | [4] -0.033 | doramapimod 0.032 | ispinesib -0.092 | bafetinib -0.038 | [5] -0.046 | nilotinib -0.024 | [6] -0.009 | dasatinib 0.001 | [7] -0.015 | [8] 0.026 | [9] 0.014 | tipifarnib 0.024 | mubritinib 0.042

AP3S1 (UniProt Q92572)
inactive: [1] -0.001 | crizotinib -0.064 | [2] 0.031 | [3] 0.067 | duvelisib 0.023 | gandotinib -0.002 | tozasertib 0.01 | [4] 0.053 | doramapimod 0.001 | ispinesib -0.026 | bafetinib -0.018 | [5] 0.016 | nilotinib -0.034 | [6] -0.017 | dasatinib -0.043 | [7] -0.015 | [8] 0.032 | [9] -0.024 | tipifarnib -0.074 | mubritinib 0.055

AP3D1 isoform 5 (UniProt O14617)
inactive: [1] 0.012 | crizotinib -0.077 | [2] -0.028 | [3] 0.036 | duvelisib -0.019 | gandotinib -0.002 | tozasertib -0.018 | [4] 0.024 | doramapimod 0.018 | ispinesib -0.05 | bafetinib 0.018 | [5] 0.046 | nilotinib -0.085 | [6] -0.03 | dasatinib -0.091 | [7] 0.013 | [8] -0.002 | [9] -0.028 | tipifarnib -0.031 | mubritinib 0.023
